According to publication PMC8290545:

Biological target: GST-tagged EVH1 domain of UNC-34 (C. elegans)
Assay: pull-down; GST-UNC-34 EVH1 as bait (200 pmol) on 20 µL GSH-Sepharose beads, 200 to 2,000 pmol prey in 1 mL; 50 or 100 mM NaCl, 10 mM HEPES pH 7.0, 5% glycerol, 5 mM 2-mercaptoethanol, 0.05% Triton X-100; 4 °C, 30 min; three washes; eluted with glutathione; SDS-PAGE, Coomassie blue; both purified

- binding: binds
B1: MBP-tagged full-length Abi (protein, UniProt Q10929 1-469)
chain: MSVNDLQELIERRIPDNRAQLETSHANLQQVAAYCEDNYIQSNNKSAALEESKKFAIQALASVAYQINKMVTDLHDMLALQTDKVNSLTNQVQYVSQVVDVHKEKLARREIGSLTTNKTLFKQPKIIAPAIPDEKQRYQRTPIDFSVLDGIGHGVRTSDPPRAAPISRATSSISGSSPSQFHNESPAYGVYAGERTATLGRTMRPYAPSIAPSDYRLPQVTPQSESRIGRQMSHGSEFGDHMSGGGGSGSQHGSSDYNSIYQPDRYGTIRAGGRTTVDGSFSIPRLSSAQSSAGGPESPTFPLPPPAMNYTGYVAPGSVVQQQQQQQMQQQNYGTIRKSTVNRHDLPPPPNSLLTGMSSRMPTQDDMDDLPPPPESVGGSSAYGVFAGRTESYSSSQPPSLFDTSAGWMPNEYLEKVRVLYDYDAAKEDELTLRENAIVYVLKKNDDDWYEGVLDGVTGLFPGNYVVPV

No constants are given. Whether binding was seen depends on the method and setting. Binding can be weak; no strength is given. Sequences can lack the tags named with a protein.
